Values quoted from earlier work as cited in article PMC8044178, “Structural basis of norepinephrine recognition and transport inhibition in neurotransmitter transporters” (Nature Communications, 2021).
pIC50, pKi: −log10 of the molar value. Where two headings read alike, the source gives them in different places.

Columns and labels:
hNET [1] = details: read-out: Binding Inhibition (Ki), hNET; vs. desipramine; ref 2 (Supplementary: Sagata et al., 2002); cited from earlier work
hNET [2] = details: cited from earlier work
hDAT = details: cited from earlier work

**Q.** With `COc1cccc(C2(O)CCCCC2CN(C)C)c1` (centres unmarked) [Tramadol, tramadol] as the compound, how does the pKi (hNET [1]) read?
**A.** The pKi was 4.95.

**Q.** And the pIC50 (hNET [2]; read-out: IC50, inhibition of hNET)?
**A.** Its pIC50 is 5.70.

**Q.** What about the pKi (hNET [2]; ref 2 (Supplementary: Sagata et al., 2002), read-out: Uptake Inhibition Ki, hNET) of the same compound?
**A.** Its pKi is 4.71.

**Q.** What about the pIC50 (hDAT; read-out: IC50, inhibition of hDAT) of the same compound?
**A.** The pIC50 was ~4.00.

**Q.** And the pIC50 (hDAT; read-out: Uptake Inhibition IC50, hDAT, ref 5 (Supplementary: Rickli et al., 2018))?
**A.** Its pIC50 is 4.00.
